No constants are given. Whether binding was seen depends on the method and setting. For some of these results: Binding seen in cells or lysates may run through a third protein. Some binding calls cover weakened binding; strength is not graded here. Tags and fused reporters may be left off the sequences shown.
T1: Lsd1-FTP (S. pombe) (UniProt Q9Y802)
T1 sequence: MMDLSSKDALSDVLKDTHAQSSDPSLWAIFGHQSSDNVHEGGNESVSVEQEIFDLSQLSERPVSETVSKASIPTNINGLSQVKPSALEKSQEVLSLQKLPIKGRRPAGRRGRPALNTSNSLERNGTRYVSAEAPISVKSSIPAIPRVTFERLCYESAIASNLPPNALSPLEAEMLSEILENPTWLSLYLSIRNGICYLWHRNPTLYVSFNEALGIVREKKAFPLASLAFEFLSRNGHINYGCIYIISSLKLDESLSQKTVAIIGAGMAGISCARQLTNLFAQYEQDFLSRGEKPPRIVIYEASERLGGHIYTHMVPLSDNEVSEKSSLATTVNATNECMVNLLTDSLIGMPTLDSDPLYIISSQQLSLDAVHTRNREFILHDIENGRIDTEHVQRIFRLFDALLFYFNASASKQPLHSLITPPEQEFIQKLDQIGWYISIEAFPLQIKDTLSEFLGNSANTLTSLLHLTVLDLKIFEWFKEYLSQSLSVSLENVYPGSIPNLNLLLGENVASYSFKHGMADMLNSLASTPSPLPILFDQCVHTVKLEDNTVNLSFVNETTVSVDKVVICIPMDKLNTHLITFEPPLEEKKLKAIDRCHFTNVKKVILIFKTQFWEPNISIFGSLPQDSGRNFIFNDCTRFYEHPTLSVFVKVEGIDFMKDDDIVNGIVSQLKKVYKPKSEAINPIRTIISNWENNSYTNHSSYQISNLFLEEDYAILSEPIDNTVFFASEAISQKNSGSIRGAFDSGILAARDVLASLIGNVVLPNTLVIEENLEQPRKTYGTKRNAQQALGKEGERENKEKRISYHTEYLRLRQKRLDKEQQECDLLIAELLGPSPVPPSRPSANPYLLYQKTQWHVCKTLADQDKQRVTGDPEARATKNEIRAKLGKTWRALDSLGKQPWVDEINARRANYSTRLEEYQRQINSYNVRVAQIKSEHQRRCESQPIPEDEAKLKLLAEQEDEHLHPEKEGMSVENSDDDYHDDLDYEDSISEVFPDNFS

T2: Lsd2-FTP (S. pombe) (UniProt Q10135)
T2 sequence: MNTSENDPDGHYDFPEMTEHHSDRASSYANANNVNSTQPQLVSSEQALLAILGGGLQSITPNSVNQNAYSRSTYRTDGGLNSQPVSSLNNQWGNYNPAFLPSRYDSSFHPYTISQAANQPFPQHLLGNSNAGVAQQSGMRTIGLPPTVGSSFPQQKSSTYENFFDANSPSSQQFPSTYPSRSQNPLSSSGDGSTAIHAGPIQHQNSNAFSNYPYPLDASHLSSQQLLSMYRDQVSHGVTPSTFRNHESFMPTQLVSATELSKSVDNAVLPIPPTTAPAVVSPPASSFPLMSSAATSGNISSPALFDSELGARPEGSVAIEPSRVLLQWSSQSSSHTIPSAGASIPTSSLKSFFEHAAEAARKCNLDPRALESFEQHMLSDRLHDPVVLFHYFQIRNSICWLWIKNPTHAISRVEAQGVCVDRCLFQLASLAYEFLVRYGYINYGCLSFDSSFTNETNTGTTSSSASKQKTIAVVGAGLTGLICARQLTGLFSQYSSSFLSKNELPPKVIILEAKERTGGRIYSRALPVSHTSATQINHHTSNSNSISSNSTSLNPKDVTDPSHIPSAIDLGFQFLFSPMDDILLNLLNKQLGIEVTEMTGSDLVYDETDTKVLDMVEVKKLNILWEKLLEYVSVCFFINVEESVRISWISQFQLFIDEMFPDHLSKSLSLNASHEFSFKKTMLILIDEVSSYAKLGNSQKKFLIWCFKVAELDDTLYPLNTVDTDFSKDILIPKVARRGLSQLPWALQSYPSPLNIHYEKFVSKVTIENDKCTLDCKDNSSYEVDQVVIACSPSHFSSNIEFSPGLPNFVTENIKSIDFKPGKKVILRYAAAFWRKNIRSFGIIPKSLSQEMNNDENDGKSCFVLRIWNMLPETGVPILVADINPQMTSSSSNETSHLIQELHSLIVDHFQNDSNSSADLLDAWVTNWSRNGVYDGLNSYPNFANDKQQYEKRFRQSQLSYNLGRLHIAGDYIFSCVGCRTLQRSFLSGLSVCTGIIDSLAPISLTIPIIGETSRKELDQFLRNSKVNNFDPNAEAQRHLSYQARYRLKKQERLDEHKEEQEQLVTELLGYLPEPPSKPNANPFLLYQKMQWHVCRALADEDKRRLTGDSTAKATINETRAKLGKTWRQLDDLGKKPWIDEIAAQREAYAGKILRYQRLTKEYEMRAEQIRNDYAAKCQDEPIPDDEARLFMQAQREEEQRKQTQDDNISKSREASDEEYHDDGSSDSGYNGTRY

T3: lsd1-ΔHMG-FTP (S. pombe) (UniProt Q9Y802)
T3 sequence: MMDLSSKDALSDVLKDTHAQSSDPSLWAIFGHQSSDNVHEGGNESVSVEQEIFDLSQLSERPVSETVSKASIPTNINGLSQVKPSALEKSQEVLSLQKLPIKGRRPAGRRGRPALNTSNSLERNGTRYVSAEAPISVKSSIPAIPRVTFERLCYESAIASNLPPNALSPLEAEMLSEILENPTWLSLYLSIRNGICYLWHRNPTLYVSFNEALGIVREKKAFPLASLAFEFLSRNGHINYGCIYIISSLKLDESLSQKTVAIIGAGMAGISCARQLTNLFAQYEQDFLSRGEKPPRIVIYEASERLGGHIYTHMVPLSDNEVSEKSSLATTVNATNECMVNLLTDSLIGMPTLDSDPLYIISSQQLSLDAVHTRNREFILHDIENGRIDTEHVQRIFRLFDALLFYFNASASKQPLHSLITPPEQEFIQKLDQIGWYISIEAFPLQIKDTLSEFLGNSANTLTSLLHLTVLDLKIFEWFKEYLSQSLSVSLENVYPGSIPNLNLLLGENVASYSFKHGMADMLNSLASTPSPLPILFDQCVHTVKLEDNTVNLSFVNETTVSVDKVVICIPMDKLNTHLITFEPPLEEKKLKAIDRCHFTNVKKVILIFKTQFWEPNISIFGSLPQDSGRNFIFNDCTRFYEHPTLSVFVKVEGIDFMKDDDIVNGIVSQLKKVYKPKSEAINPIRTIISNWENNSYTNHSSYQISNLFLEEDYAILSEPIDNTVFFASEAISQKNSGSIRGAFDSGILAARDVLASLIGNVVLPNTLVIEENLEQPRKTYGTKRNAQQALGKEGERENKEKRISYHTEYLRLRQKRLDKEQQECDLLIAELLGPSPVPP

T4: Lsd1 (yeast two-hybrid fusion) (S. pombe) (UniProt Q9Y802)
T4 sequence: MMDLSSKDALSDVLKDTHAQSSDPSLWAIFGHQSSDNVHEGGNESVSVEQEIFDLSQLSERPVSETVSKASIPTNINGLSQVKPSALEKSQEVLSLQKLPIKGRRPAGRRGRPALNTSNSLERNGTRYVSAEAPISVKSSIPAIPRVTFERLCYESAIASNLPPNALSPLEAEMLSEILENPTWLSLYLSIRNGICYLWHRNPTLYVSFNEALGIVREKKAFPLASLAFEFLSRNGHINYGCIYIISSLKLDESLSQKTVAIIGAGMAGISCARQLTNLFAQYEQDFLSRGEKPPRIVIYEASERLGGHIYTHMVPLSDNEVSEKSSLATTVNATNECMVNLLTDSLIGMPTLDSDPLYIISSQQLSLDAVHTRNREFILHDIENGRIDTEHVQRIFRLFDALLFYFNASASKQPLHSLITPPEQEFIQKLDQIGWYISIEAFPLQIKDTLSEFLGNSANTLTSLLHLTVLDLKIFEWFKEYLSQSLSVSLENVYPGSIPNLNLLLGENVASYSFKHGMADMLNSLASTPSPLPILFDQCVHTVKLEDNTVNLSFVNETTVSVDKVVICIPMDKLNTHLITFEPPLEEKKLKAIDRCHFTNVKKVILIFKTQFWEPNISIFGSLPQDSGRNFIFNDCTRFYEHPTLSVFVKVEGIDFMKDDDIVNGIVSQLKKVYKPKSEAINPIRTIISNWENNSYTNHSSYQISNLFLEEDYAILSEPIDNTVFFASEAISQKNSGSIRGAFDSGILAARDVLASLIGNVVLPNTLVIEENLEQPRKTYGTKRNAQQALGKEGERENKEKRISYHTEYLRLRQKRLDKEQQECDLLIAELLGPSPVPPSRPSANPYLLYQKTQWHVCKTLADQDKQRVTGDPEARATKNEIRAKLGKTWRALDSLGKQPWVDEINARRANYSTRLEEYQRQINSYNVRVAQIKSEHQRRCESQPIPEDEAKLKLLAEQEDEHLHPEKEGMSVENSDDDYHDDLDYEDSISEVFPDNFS


Key:
Lsd1-FTP (S. pombe) = target: T1, Lsd1-FTP (S. pombe); assay: co-IP; FTP-tagged Lsd1 or Lsd2 precipitated from S. pombe whole cell extract with IgG Sepharose beads, 4-6 hours at 4°C; western blot with PAP, anti-myc or anti-HA
Lsd2-FTP (S. pombe) = target: T2, Lsd2-FTP (S. pombe); assay: as above
lsd1-ΔHMG-FTP (S. pombe) = target: T3, lsd1-ΔHMG-FTP (S. pombe); assay: as above
[1] = target: T4, Lsd1 (yeast two-hybrid fusion) (S. pombe); assay: two-hybrid; Matchmaker Gold system; bait fused to Gal4-BD (pGBKT7, Y2H Gold cells), prey fused to Gal4-AD (pGADT7, Y187 cells), mated; reporters ADE2 (-Ade -Leu -Trp) and MEL1 (-Leu -Trp +X-α-gal)

Row | binding (Lsd1-FTP (S. pombe)) | binding (Lsd2-FTP (S. pombe)) | binding (lsd1-ΔHMG-FTP (S. pombe)) | binding [1] | Binder
1 | binds | binds | binds |  | Phf1-myc (protein, UniProt P87233 1-461) MSQKNFFDEGKSYGVNDYAGFHFENGADSSLPQVSAQGVVRETDSSNFDASPVASGSGISDVGPFGADFHQLQQHVQTPYGGMTMPASSSSGATSVPPEQDPSLSVSFNRLPKSASTKTKNGRIRSSRREDDNRIPFYDLDVAEGAEDDLQEDFHVEGMKTKSGRKIQRPVAYNPNATALKRKSRKVDMVTLCSVCQRGHSPLSNRIVFCDGCNSPYHQLCHHPPIDDATVQDVDAEWFCMKCQYRRAKQPLETGMTAQDLGLSESDKKMYLSSLPTPHLADLILFCEKSYPSLPIYNPRTRELLGEIRHQLLVSSERQQISLQERLHAKQDEAPSDEPAPVPYTASYVANSGTLYDYPTLIRLAIRNTLSPSKDEIFNWLAQNVPLLPTFHDSASEAIRWMVNKGQLVRSGSIYQIATVEEYPHLQPSLLPTFQRNRKVPKLVPVSFPTDDPQNLCATVL
2 |  |  |  | binds | Phf2 (yeast two-hybrid fusion) (protein, UniProt Q09908 1-538) MPNSSYYDDDGGSFEAASYPFQFDGSRRFPNDLHPTMFEGEESNQNGGSVLIDQAFQDIQNPNVNSNMHLENQFQHFHEPNKESGAFGSYKNDDVAKEIESSKNQETDAKSEQAPFTEDASSSNYAHHRSADSQTKSALPPNVPASSSPLPPMSIAMNIARKRSWPASLAIERDNTADALFSTEDGREEQFNLEGVKTKSGRKVHRPNHFDPLVKLPTRRRGPGRRPVVALAMKCSVCQRLQSPPKNRIVFCDGCNTPFHQLCHEPYISDELLDSPNGEWFCDDCIRRKKQAPLVTGTTARELNLSSEEKKSYLLSLPISQLVDILLFCEQLHPDIPFYSPKTSTIVQELQSKRSAFTATMNEPVTGDQYLSLNNGTESQSKTTKHSTSLPSTEPVEVDKQYMESEKIPTIDEYLQEYSNEDEIVLQVLESFPAAVSFSTITNTIQAKYSNRKIKNSNITRSLNRLVRKNRVLRDARGSSYELNRTFDADRPSVRPDISITGPIPIDWMLYTPHTEDLTENFCTYYMFDETPIVLSSI

Reference: paper PMC10795994
